The data set can be described thus: In vitro dry powder inhaler deposition, Andersen Cascade Impactor. As for the experimental part:
The pulmonary deposition of the dry powders was investigated using an Andersen Cascade Impactor (ACI) (1 ACFM Eight Stage Non-Viable Cascade Impactor, Graseby Andersen, Atlanta, Ga.). […] Size 3 hard gelatin capsules (Farillon Ltd., U.K.) were filled to approximately 50% with the dry powder (approximately 25 mg of powder). […] The amount of powder deposited on each stage of the impactor was determined by weight, UV analysis or HPLC analysis.

For one compound, fine particle fraction results are on record in patent publication US20100092453A1, “Method of producing porous microparticles” (priority 2006, published 2010).

SMILES strings stand for the structures.

Consider `Cc1cc(C)nc(NS(=O)(=O)c2ccc(N)cc2)n1` [Micronised sulfadimidine, sulfadimidine], for which the fine particle fraction (sulfadimidine and sulfadimidine/lactose carrier blends) came out at 1.4±0.1%; the fine particle fraction (sulfadimidine powders (Examples 11, 12, raw, non-porous)) was determined as 2.3±0.7%.
